Literature values in patent US20120101076A1, “CARBONATE DERIVATIVES FOR THE TREATMENT OF COUGH” (priority 2010, published 2012).

Tested on: citric acid-induced cough in asthmatics
Details: cited from earlier work

In the case of CC(C)[N+]1(C)[C@@H]2CC[C@H]1C[C@@H](OC(=O)C(CO)c1ccccc1)C2 (stereo partly shown) [ipratropium bromide], the citric acid-induced cough is listed as “able to diminish citric acid-induced cough”.
